In the supplement of paper PMC4604168 (melanoma cell lines):
The other results are listed elsewhere or left out. Many values rest on one well or one pass, so single values are uncertain.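 Imaging used 1,536-well plates; nuclei positive for cleaved PARP by antibody were divided by total DNA-stained nuclei to yield the apoptosis fraction. Doses for screening kept most cells viable, and cell lines differ markedly in resting and induced cleaved-PARP levels.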

The compounds below were run on WM451Lu (assay: cleaved PARP positive nuclei fraction relative to DMSO control; melanoma cells; higher = more apoptosis). Details: library dose: low library concentration; 72 h.

SMILES	cleaved PARP positive nuclei fraction [%]
Nc1cccc2c1CN(C1CCC(=O)NC1=O)C2=O (configuration not stated) [lenalidomide] + NC(=O)Nc1cc(-c2cccc(F)c2)sc1C(=O)N[C@H]1CCCNC1 [AZD7762] (first compound 1 µM, partner dose 0.02 µM)	97.5
Nc1cccc2c1CN(C1CCC(=O)NC1=O)C2=O (configuration not stated) [lenalidomide] + COc1cc(N2CCC(N3CCN(C)CC3)CC2)ccc1Nc1ncc(Cl)c(Nc2ccccc2S(=O)(=O)C(C)C)n1 [NVP-TAE684] (first compound 1 µM, partner dose 0.08 µM)	120
NC(=O)Nc1cc(-c2cccc(F)c2)sc1C(=O)N[C@H]1CCCNC1 + O=c1cc(-c2cccc3c2Sc2ccccc2S3)oc(N2CCOCC2)c1 [KU55933] (first compound 0.02 µM, partner dose 1 µM)	37
Cc1cc(N2CCOCC2)cc2[nH]c(-c3c(NC[C@@H](O)c4cccc(Cl)c4)cc[nH]c3=O)nc12 + Oc1nc(-c2ccc(C(F)(F)F)cc2)nc2c1CSCC2 [XAV939] (first compound 0.2 µM, partner dose 2 µM)	80.8
Nc1cccc2c1CN(C1CCC(=O)NC1=O)C2=O (configuration not stated) [lenalidomide] + C=CCn1c(=O)c2cnc(Nc3ccc(N4CCN(C)CC4)cc3)nc2n1-c1cccc(C(C)(C)O)n1 [MK1775] (first compound 1 µM, partner dose 0.02 µM)	75.2
OCc1c[nH]c2ccccc12 [Indole-3-carbinol] + COc1cc(N2CCC(N3CCN(C)CC3)CC2)ccc1Nc1ncc(Cl)c(Nc2ccccc2S(=O)(=O)C(C)C)n1 [NVP-TAE684] (first compound 0.8 µM, partner dose 0.08 µM)	168
Clc1ccc(Nc2nnc(Cc3ccncc3)c3ccccc23)cc1 [vatalanib] + C=CCn1c(=O)c2cnc(Nc3ccc(N4CCN(C)CC4)cc3)nc2n1-c1cccc(C(C)(C)O)n1 [MK1775] (first compound 2 µM, partner dose 0.02 µM)	23.9
CO[C@@H]1[C@H](N(C)C(=O)c2ccccc2)C[C@H]2O[C@]1(C)n1c3ccccc3c3c4c(c5c6ccccc6n2c5c31)C(=O)NC4 [Midostaurin] + COc1ccc2c(c1)CCC1C2CCC2(C)C(NCCCCCCN3C(=O)C=CC3=O)CCC12 [U73122] (first compound 0.08 µM, partner dose 0.4 µM)	131
CC(C)(C)c1cnc(CSc2cnc(NC(=O)C3CCNCC3)s2)o1 + N#Cc1c(O)c2c(-c3ccc(-c4ccccc4O)cc3)csc2[nH]c1=O [A769662] (first compound 0.01 µM, partner dose 2 µM)	115
Cn1nnc2c(C(N)=O)ncn2c1=O [temozolomide] + O=c1cc(-c2cccc3c2Sc2ccccc2S3)oc(N2CCOCC2)c1 [KU55933] (first compound 2 µM, partner dose 1 µM)	30.7
C[C@@H]1CCN(C(=O)CC#N)C[C@@H]1N(C)c1ncnc2[nH]ccc12 + CCCCCCCCCCCC1=C(O)C(=O)C=C(O)C1=O [Embelin] (first compound 1 µM, partner dose 1.2 µM)	135
C=CCn1c(=O)c2cnc(Nc3ccc(N4CCN(C)CC4)cc3)nc2n1-c1cccc(C(C)(C)O)n1 + C[C@@H]1CCN(C(=O)CC#N)C[C@@H]1N(C)c1ncnc2[nH]ccc12 [CP690550] (first compound 0.02 µM, partner dose 1 µM)	60

In a second layout: results already given
SMILES,cleaved PARP positive nuclei fraction [%]
"CC(C)(C)c1cnc(CSc2cnc(NC(=O)C3CCNCC3)s2)o1 + N#Cc1c(O)c2c(-c3ccc(-c4ccccc4O)cc3)csc2[nH]c1=O [A769662] (first compound 0.01 µM, partner dose 2 µM)",115
"Cn1nnc2c(C(N)=O)ncn2c1=O [temozolomide] + O=c1cc(-c2cccc3c2Sc2ccccc2S3)oc(N2CCOCC2)c1 [KU55933] (first compound 2 µM, partner dose 1 µM)",30.7
